{"source": "PubChem BioAssay AID248", "about": "(DTP/NCI, 2004)", "system": "L1210 leukemia ip in BDF1 mice, survival T/C", "assay": "NCI In Vivo Anticancer Drug Screen. Data for tumor model L1210 Leukemia (intraperitoneal) in B6D2F1 (BDF1) mice", "conditions": "T/C endpoint: mean survival time, higher T/C = longer survival", "key": {"[1]": {"conditions": "dose: 50.0 mg/kg/injection, schedule: Q04DX003 (ip), vehicle: water"}}, "note": "The list is a part of this screen's results and no random one: it gathers tests that were run many times, whatever their T/C, doses with no T/C, and many T/C values between a quarter and a half above the control. Further doses and runs are listed elsewhere. T/C is the treated group as % of the vehicle group. Some doses have a count of surviving animals in place of a T/C: the source holds a T/C of zero for them, seemingly a mark for toxic or unscored doses. Some doses without a T/C left all or most animals alive at the check, yet need not have been tolerated: the source hardly ever lists a survival T/C far under the control, and the zero likely stands for such cases as well. Survivors were counted at the toxicity check, usually on the fifth day, unless a day is given; later deaths do not show. Schedule codes are those of the source, read here as Q, the interval in days (D) or hours (H), X, the number of doses. Additions like (4×) stand for listed records that agree. Some schedule codes hold Z or #, which are not explained here. Some entries hold several experiments; the results are listed from low to high. Where survival is the endpoint, this PubChem deposit counts one and a half times the control or more as active, and values a quarter to a half above the control carry no call in these data; other NCI protocols may use other cut-offs. Some T/C values carry the count of animals alive at the toxicity check (mostly the fifth day); where none is given, no animal had died by that day.", "data": [{"molecule": "Nc1ncn(C2OC(CO)C(O)C2O)c(=O)n1", "note": "(stereo not drawn)", "values": [{"measurement": "T/C", "setting": "dose: 14.0 mg/kg/injection, schedule: Q01DX001 (ip), vehicle: saline", "value": "146 % of control"}, {"measurement": "T/C", "setting": "dose: 16.0 mg/kg/injection, schedule: Q## X003 (oral), vehicle: saline", "value": "144 % of control"}, {"measurement": "T/C", "setting": "dose: 16.0 mg/kg/injection, schedule: Q## X024 (oral), vehicle: saline", "value": "143 % of control"}, {"measurement": "T/C", "setting": "dose: 18.0 mg/kg/injection, schedule: Q04DX002 (ip), vehicle: saline", "value": "174, 200, 209, 228 % of control"}, {"measurement": "survivor count", "setting": "dose: 24.0 mg/kg/injection, schedule: Q01DX005 (ip), vehicle: saline", "value": "4 of 10"}, {"measurement": "survivor count", "setting": "dose: 24.0 mg/kg/injection, schedule: Q01DX009 (ip), vehicle: clinical formulation", "value": "5 of 6"}, {"measurement": "survivor count", "setting": "dose: 24.0 mg/kg/injection, schedule: Q01DX009 (ip), vehicle: saline", "value": "4 of 10 and 5 of 6"}, {"measurement": "T/C", "setting": "dose: 24.0 mg/kg/injection, schedule: Q01DX009 (oral), vehicle: saline", "value": "129 % of control"}, {"measurement": "survivor count", "setting": "dose: 25.0 mg/kg/injection, schedule: Q01DX005 (ip), vehicle: saline", "value": "5 of 6"}, {"measurement": "survivor count", "setting": "dose: 25.0 mg/kg/injection, schedule: Q01DX009 (ip), vehicle: saline", "value": "5 of 6"}, {"measurement": "T/C", "setting": "dose: 25.0 mg/kg/injection, schedule: Q04DX003 (ip), vehicle: clinical formulation", "value": "116, 126, 188, 211, 252, 261 % of control"}, {"measurement": "T/C", "setting": "dose: 25.0 mg/kg/injection, schedule: Q04DX003 (ip), vehicle: water, evaluated on day 30", "value": "96 and 104 % of control"}, {"measurement": "T/C", "setting": "dose: 25.0 mg/kg/injection, schedule: Q04DX003 (ip), vehicle: water, evaluated on day 60", "value": "92, 98, 104, 105, 109 (2×), 120, 143, 144 % of control"}, {"measurement": "T/C", "setting": "dose: 32.0 mg/kg/injection, schedule: Q## X008 (oral), vehicle: saline", "value": "138 % of control"}, {"measurement": "survivor count", "setting": "dose: 32.0 mg/kg/injection, schedule: Q## X040 (oral), vehicle: saline", "value": "7 of 10"}, {"measurement": "survivor count", "setting": "dose: 48.0 mg/kg/injection, schedule: Q01DX005 (ip), vehicle: saline", "value": "0 of 10"}, {"measurement": "survivor count", "setting": "dose: 48.0 mg/kg/injection, schedule: Q01DX009 (oral), vehicle: saline", "value": "10 of 10"}, {"measurement": "survivor count", "setting": "dose: 48.0 mg/kg/injection, schedule: Q## X008 (ip), vehicle: saline", "value": "5 of 10"}, {"measurement": "survivor count", "setting": "dose: 48.0 mg/kg/injection, schedule: Q## X024 (ip), vehicle: saline", "value": "7 of 10"}, {"measurement": "T/C", "setting": "dose: 50.0 mg/kg/injection, schedule: Q01DX001 (ip), vehicle: saline, evaluated on day 5", "value": "161 % of control"}, {"measurement": "T/C", "setting": "dose: 50.0 mg/kg/injection, schedule: Q01DX001 (ip), vehicle: saline, evaluated on day 60", "value": "161 % of control"}, {"measurement": "T/C", "setting": "dose: 50.0 mg/kg/injection, schedule: Q01DX001 (ip), vehicle: saline, run until all animals had died", "value": "130 [5 of 6 alive], 164, 176 % of control"}, {"measurement": "survivor count", "setting": "dose: 50.0 mg/kg/injection, schedule: Q01DX005 (ip), vehicle: saline", "value": "0 of 6"}, {"measurement": "survivor count", "setting": "dose: 50.0 mg/kg/injection, schedule: Q01DX009 (ip), vehicle: saline", "value": "0 of 6"}, {"measurement": "T/C", "setting": "dose: 50.0 mg/kg/injection, schedule: Q04DX003 (ip), vehicle: clinical formulation", "value": "95, 116, 122 (2×), 131, 152 % of control"}, {"measurement": "T/C", "setting": "[1]", "value": "88, 91, 93, 117, 120, 157 % of control"}, {"measurement": "survivor count", "setting": "[1]", "value": "10 of 10 (2×)"}, {"measurement": "T/C", "setting": "dose: 64.0 mg/kg/injection, schedule: Q## X024 (oral), vehicle: saline", "value": "128 % of control"}, {"measurement": "T/C", "setting": "dose: 69.0 mg/kg/injection, schedule: Q04DX002 (ip), vehicle: saline", "value": "129 % of control"}, {"measurement": "T/C", "setting": "dose: 75.0 mg/kg/injection, schedule: Q01DX001 (ip), vehicle: saline, evaluated on day 5", "value": "164 and 173 % of control"}, {"measurement": "T/C", "setting": "dose: 75.0 mg/kg/injection, schedule: Q01DX001 (ip), vehicle: saline, evaluated on day 60", "value": "164 and 173 % of control"}, {"measurement": "survivor count", "setting": "dose: 96.0 mg/kg/injection, schedule: Q## X008 (ip), vehicle: saline", "value": "0 of 10"}, {"measurement": "survivor count", "setting": "dose: 96.0 mg/kg/injection, schedule: Q## X024 (ip), vehicle: saline", "value": "0 of 10"}, {"measurement": "T/C", "setting": "dose: 100.0 mg/kg/injection, schedule: Q01DX001 (ip), vehicle: saline, evaluated on day 5", "value": "139 and 164 % of control"}, {"measurement": "T/C", "setting": "dose: 100.0 mg/kg/injection, schedule: Q01DX001 (ip), vehicle: saline, evaluated on day 60", "value": "139 and 164 % of control [7 of 10 alive]"}, {"measurement": "T/C", "setting": "dose: 100.0 mg/kg/injection, schedule: Q01DX001 (ip), vehicle: saline, run until all animals had died", "value": "158 and 164 % of control [5 of 6 alive]"}, {"measurement": "survivor count", "setting": "dose: 100.0 mg/kg/injection, schedule: Q01DX005 (ip), vehicle: saline", "value": "0 of 6"}, {"measurement": "T/C", "setting": "dose: 128.0 mg/kg/injection, schedule: Q01DX001 (oral), vehicle: saline", "value": "128 % of control"}, {"measurement": "survivor count", "setting": "dose: 128.0 mg/kg/injection, schedule: Q## X024 (oral), vehicle: saline", "value": "8 of 10"}, {"measurement": "survivor count", "setting": "dose: 192.0 mg/kg/injection, schedule: Q01DX001 (ip), vehicle: saline", "value": "3 of 10"}, {"measurement": "survivor count", "setting": "dose: 200.0 mg/kg/injection, schedule: Q01DX001 (ip), vehicle: saline", "value": "1 of 6"}, {"measurement": "survivor count", "setting": "dose: 200.0 mg/kg/injection, schedule: Q01DX005 (ip), vehicle: saline", "value": "0 of 6"}, {"measurement": "T/C", "setting": "dose: 256.0 mg/kg/injection, schedule: Q01DX001 (oral), vehicle: saline", "value": "137 and 143 % of control [9 of 10 alive]"}]}]}
